Laboratory results taken from PMC10442334.
No constants are given. Whether binding was seen depends on the method and setting. In cells and extracts the contact can be indirect. Some entries that bind do so weakly or less than the wild type.

B1: MCM6 (endogenous) (protein, UniProt Q14566 1-821)
chain: MDLAAAAEPGAGSQHLEVRDEVAEKCQKLFLDFLEEFQSSDGEIKYLQLAEELIRPERNTLVVSFVDLEQFNQQLSTTIQEEFYRVYPYLCRALKTFVKDRKEIPLAKDFYVAFQDLPTRHKIRELTSSRIGLLTRISGQVVRTHPVHPELVSGTFLCLDCQTVIRDVEQQFKYTQPNICRNPVCANRRRFLLDTNKSRFVDFQKVRIQETQAELPRGSIPRSLEVILRAEAVESAQAGDKCDFTGTLIVVPDVSKLSTPGARAETNSRVSGVDGYETEGIRGLRALGVRDLSYRLVFLACCVAPTNPRFGGKELRDEEQTAESIKNQMTVKEWEKVFEMSQDKNLYHNLCTSLFPTIHGNDEVKRGVLLMLFGGVPKTTGEGTSLRGDINVCIVGDPSTAKSQFLKHVEEFSPRAVYTSGKASSAAGLTAAVVRDEESHEFVIEAGALMLADNGVCCIDEFDKMDVRDQVAIHEAMEQQTISITKAGVKATLNARTSILAAANPISGHYDRSKSLKQNINLSAPIMSRFDLFFILVDECNEVTDYAIARRIVDLHSRIEESIDRVYSLDDIRRYLLFARQFKPKISKESEDFIVEQYKHLRQRDGSGVTKSSWRITVRQLESMIRLSEAMARMHCCDEVQPKHVKEAFRLLNKSIIRVETPDVNLDQEEEIQMEVDEGAGGINGHADSPAPVNGINGYNEDINQESAPKASLRLGFSEYCRISNLIVLHLRKVEEEEDESALKRSELVNWYLKEIESEIDSEEELINKKRIIEKVIHRLTHYDHVLIELTQAGLKGSTEGSESYEEDPYLVVNPNYLLED
B2: CDC6 (cell division cycle protein 6) (endogenous) (protein, UniProt Q99741 1-560)
chain: MPQTRSQAQATISFPKRKLSRALNKAKNSSDAKLEPTNVQTVTCSPRVKALPLSPRKRLGDDNLCNTPHLPPCSPPKQGKKENGPPHSHTLKGRRLVFDNQLTIKSPSKRELAKVHQNKILSSVRKSQEITTNSEQRCPLKKESACVRLFKQEGTCYQQAKLVLNTAVPDRLPAREREMDVIRNFLREHICGKKAGSLYLSGAPGTGKTACLSRILQDLKKELKGFKTIMLNCMSLRTAQAVFPAIAQEICQEEVSRPAGKDMMRKLEKHMTAEKGPMIVLVLDEMDQLDSKGQDVLYTLFEWPWLSNSHLVLIGIANTLDLTDRILPRLQAREKCKPQLLNFPPYTRNQIVTILQDRLNQVSRDQVLDNAAVQFCARKVSAVSGDVRKALDVCRRAIEIVESDVKSQTILKPLSECKSPSEPLIPKRVGLIHISQVISEVDGNRMTLSQEGAQDSFPLQQKILVCSLMLLIRQLKIKEVTLGKLYEAYSKVCRKQQVAAVDQSECLSLSGLLEARGILGLKRNKETRLTKVFFKIEEKEIEHALKDKALIGNILATGLP
B3: CDC6 (in vitro transcribed/translated) (protein, UniProt Q99741 1-560)
chain: B2 chain
B4: MCM6 (in vitro transcribed/translated) (protein, UniProt Q14566 1-821)
chain: B1 chain

How the values were obtained:
[1] = target: NFIB (endogenous) (human (endogenous in U2OS, BT-474, ZR-75-1)) (UniProt O00712); experiment: co-IP; endogenous proteins, U2OS whole cell extracts; lysis buffer 50 mM Tris-HCl pH 7.5, 150 mM NaCl, 0.3% NP-40, 2 mM EDTA; 500 μg protein, 2 μg antibody, 4 °C 12 h, protein A or G beads; IP anti-NFIB, immunoblot of partners
[2] = target: NFIB (endogenous) (human (endogenous in U2OS, BT-474, ZR-75-1)) (UniProt O00712); experiment: co-IP; endogenous proteins, chromatin fraction (CSK buffer + 0.5% Triton X-100, DNase I) of U2OS synchronized at G1/S boundary by double-thymidine block; IP anti-NFIB with blots of partners, and IP of partners with blot of NFIB
[3] = target: GST-fused C-terminal fragment of NFIB (69-495 aa) (UniProt O00712); experiment: pull-down; GST fusion proteins immobilised on glutathione-Sepharose 4B beads; 10 μl in vitro transcribed/translated protein, 2 h 4 °C; 10 mM HEPES pH 7.6, 3 mM MgCl2, 100 mM KCl, 5 mM EDTA, 5% glycerol, 0.5% CA630; only the target purified
[4] = target: GST-fused N-terminal fragment of NFIB (1-173 aa) (UniProt O00712); experiment: as above
[5] = target: GST-fused full-length NFIB (UniProt O00712); experiment: as above
[6] = target: GST-fused MH1-deleted mutant of NFIB (1-68 aa + 174-495 aa) (UniProt O00712); experiment: as above

| Binder | binding [1] | binding [2] | binding [3] | binding [4] | binding [5] | binding [6] |
| --- | --- | --- | --- | --- | --- | --- |
| B1 | binds | binds |  |  |  |  |
| B2 | binds | binds |  |  |  |  |
| B3 |  |  | binds | binds | binds |  |
| B4 |  |  | binds |  | binds | binds |
